# Reference: publication PMC5127561
# Chains of the proteins cited; added tags and fusions are not shown. Lines headed by an entry give the natural chain unless they say otherwise; changes in a name come on top.
# UniProt P42283: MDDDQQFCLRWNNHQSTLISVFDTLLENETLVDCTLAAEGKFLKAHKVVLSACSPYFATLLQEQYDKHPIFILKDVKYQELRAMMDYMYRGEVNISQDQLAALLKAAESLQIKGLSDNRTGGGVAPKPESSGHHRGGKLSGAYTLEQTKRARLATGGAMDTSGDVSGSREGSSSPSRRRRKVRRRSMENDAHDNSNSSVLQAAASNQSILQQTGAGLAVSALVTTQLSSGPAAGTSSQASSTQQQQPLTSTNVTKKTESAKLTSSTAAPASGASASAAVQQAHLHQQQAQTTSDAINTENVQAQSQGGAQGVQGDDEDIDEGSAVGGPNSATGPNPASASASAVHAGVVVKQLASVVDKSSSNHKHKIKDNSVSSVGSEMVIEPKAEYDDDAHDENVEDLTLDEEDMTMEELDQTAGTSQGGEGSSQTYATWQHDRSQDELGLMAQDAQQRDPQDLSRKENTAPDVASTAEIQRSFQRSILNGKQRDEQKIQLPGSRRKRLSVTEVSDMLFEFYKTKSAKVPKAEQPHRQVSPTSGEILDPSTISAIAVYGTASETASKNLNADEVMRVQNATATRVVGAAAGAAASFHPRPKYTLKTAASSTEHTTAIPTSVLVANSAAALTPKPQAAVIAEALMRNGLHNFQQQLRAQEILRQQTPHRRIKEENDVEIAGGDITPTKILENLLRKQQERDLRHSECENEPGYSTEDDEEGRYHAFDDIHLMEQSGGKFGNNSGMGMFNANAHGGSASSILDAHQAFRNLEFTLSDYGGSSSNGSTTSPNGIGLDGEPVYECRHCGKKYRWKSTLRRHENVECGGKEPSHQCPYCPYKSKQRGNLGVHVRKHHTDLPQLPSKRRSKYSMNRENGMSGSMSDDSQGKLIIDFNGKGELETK
# Results are given in words; binding and its absence hold for the method and conditions named. Binding calls can cover weak binding; strength is not graded here.
# Experiments:
# [1] = target: Rib BTB domain (Drosophila melanogaster) (UniProt Q7KF43); assay: two-hybrid; Matchmaker Gold system; pGADT7 (AD) fusions in Y2H-Gold mated with pGBKT7 (BD) fusions in Y187; diploids streaked on SD-Leu-Trp-His-Ade plates with X-alpha-Gal and Aureobasidin A; four reporters
# [2] = target: Lola BTB domain (Drosophila melanogaster) (UniProt P42283); assay: as above
Substance,binding [1],binding [2]
Lola BTB domain (from UniProt P42283) (domain or fragment),binds,–
Rib BTB domain (from UniProt Q7KF43) (domain or fragment),–,binds
